The values below come from PubChem BioAssay AID485318 (Broad Institute, 2010).

Amino acid sequences for entries named in this document (tags omitted). A change or cut given only in a name is not applied to a line headed by its entry.
UniProt O15379: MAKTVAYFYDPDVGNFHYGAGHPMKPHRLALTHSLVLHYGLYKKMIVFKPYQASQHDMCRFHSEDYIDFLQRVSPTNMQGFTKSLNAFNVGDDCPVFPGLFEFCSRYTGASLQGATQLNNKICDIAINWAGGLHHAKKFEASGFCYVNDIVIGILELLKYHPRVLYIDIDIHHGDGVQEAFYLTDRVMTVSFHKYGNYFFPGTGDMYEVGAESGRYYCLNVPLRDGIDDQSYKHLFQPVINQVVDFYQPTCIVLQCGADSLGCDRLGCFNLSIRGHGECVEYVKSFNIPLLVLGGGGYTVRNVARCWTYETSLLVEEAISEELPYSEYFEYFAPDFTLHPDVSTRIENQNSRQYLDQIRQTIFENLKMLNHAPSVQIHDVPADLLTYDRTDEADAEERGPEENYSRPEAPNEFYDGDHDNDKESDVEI

Hit rate of the full screen: of about 1,400 compounds, fewer than 10 were called active.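 How the source made its calls: active means fluorescence-lowering compounds whose fitted half-maximal concentration is at or below ten times the highest valid dose tested; inconclusive means flat curve at 30 to 70% inhibition, or poor fit; inactive means the rest.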 The list shows a part of the results.

The target of this test is Histone deacetylase 3 (Homo sapiens) (UniProt O15379). Briefly: inhibition of human HDAC3 enzymatic activity – biochemical, fluorescence, cherry-picked samples, counter-screen for JMJD2C/GASC1 demethylase inhibitor project, dose response (AID 485318).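 Further: enzyme preincubated with compound before substrate and trypsin were added; 0% = neutral control wells and -100% = SAHA positive control wells.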 The settings on record: recombinant HDAC3, fluorogenic peptide/trypsin coupled; at 12 µM (top of the series).
As to `Oc1cc(O)cc(/C=C/c2ccc(O)c(O)c2)c1`, the activity change, negative = inhibition is inactive: 0.381%.

Regarding `Cc1noc(C)c1NC(=O)Nc1cccc2c1O[C@H](CN(C)S(=O)(=O)c1cccs1)[C@@H](C)CN([C@H](C)CO)C2=O`, the activity change, negative = inhibition was inactive: 0.216%.

As to `CSc1nc(N)nc2c1ncn2CC(=O)N[C@H](CO)Cc1c[nH]c2ccccc12`, the activity change, negative = inhibition is inactive: -0.258%.

Take `O=C1[C@@H]2[C@H](C(=O)N1O)[C@H]1C=C[C@@H]2C1`: the activity change, negative = inhibition is inactive: 0.87%.

For the molecule `CCOC(=O)[C@H]1[C@H]2COc3ccc(OC)cc3[C@@H]2N2C(=O)c3cc(C)ccc3NC(=O)[C@@]12C`, the activity change, negative = inhibition was inactive: 0.0466%.

Turning to `CCn1nnnc1SCC(=O)NCc1cccs1`, the activity change, negative = inhibition was inactive: -0.443%.

For the molecule `O=C(Nc1cccnc1)c1ccc2c(c1)C(=O)N(Cc1cccnc1)C2=O`, the activity change, negative = inhibition was inactive: 0.515%.

On to `CCC(C)(C)NC(=O)C(c1cccn1C)N(Cc1ccc(OC)cc1)C(=O)Cn1nnc2ccccc21` (stereo not given), for which the activity change, negative = inhibition is inactive: -0.142%.

`Cc1cc(NC(=O)CCC(=O)N(c2ccccc2)C2(C(=O)NC3CCCCC3)CCCC2)no1`: the activity change, negative = inhibition is inactive: 0.846%.

On to `CC(=O)c1c(C)[nH]c(C(=O)NCCC2=CCCCC2)c1C`, for which the activity change, negative = inhibition is inactive: 0.207%.

`O=C(NCc1cccs1)c1cccnc1C(=O)O`: the activity change, negative = inhibition was inactive: 0.975%.

Regarding `Cc1noc(C)c1CCC(=O)N1CCCC(CCC(=O)NCc2ccccc2F)C1` (stereo not given), the activity change, negative = inhibition is inactive: 0.141%.

Take `O=c1cc(N2CCc3ccccc32)[nH]c(=O)n1-c1ccccc1`: the activity change, negative = inhibition was inactive: 0.0216%.

Take `CCCN(CCC)CCNC(=O)CS(=O)Cc1nc(-c2ccc(C)cc2)oc1C` (stereo not given): the activity change, negative = inhibition is inactive: 0.188%.

On to `COC(=O)C1CN(S(=O)(=O)c2ccc(C)cc2)CCN1S(=O)(=O)c1ccc(C)cc1` (stereo not given), for which the activity change, negative = inhibition is inactive: 0.577%.

On to `COC(C(=O)Nc1ccc(NC(=O)C(OC)c2ccccc2)cc1)c1ccccc1` (stereo not given), for which the activity change, negative = inhibition is inactive: 0.102%.

For `CCN(C[C@H]1N[C@@](Cc2ccccc2)(C(=O)OC)[C@H]2C(=O)N(Cc3ccccc3)C(=O)[C@@H]12)S(=O)(=O)c1ccccc1`, the activity change, negative = inhibition was inactive: -0.121%.

On to `COc1ccc(NC(=O)N(C)C[C@H]2Oc3c(NS(=O)(=O)c4cccs4)cccc3C(=O)N([C@@H](C)CO)C[C@@H]2C)cc1`, for which the activity change, negative = inhibition was inactive: 0.176%.

On to `COc1cccc(NC(=O)CCN2C(=O)C3CC=CCC3C2=O)c1` (stereo not given), for which the activity change, negative = inhibition was inactive: -0.294%.

Regarding `CC1=NN(C(=O)Cc2ccccc2)C(O)(c2cccnc2)C1` (stereo not given), the activity change, negative = inhibition is inactive: -0.309%.

`O=C(/C=C\Nc1ccc(Cl)cn1)c1ccc(Br)cc1`: the activity change, negative = inhibition was inactive: -0.0873%.

As for `CC(C)(C)c1ccc(-c2csc(NNC3=NCCCCC3)n2)cc1`, the activity change, negative = inhibition is inactive: -9.81%.

On to `Cc1onc(-c2c(F)cccc2Cl)c1C(=O)N1CCN(S(C)(=O)=O)CC1`, for which the activity change, negative = inhibition is inactive: 0.715%.

Turning to `CC(C)(C)OC(=O)C[C@@H]1C/C=C\C[C@H](CC(=O)N[C@H](CO)Cc2ccccc2)C(=O)N[C@@H](Cc2ccccc2)COC1=O`, the activity change, negative = inhibition was inactive: 1.08%.

On to `O=C(COC(=O)c1ccco1)NNC(=O)c1ccc(Cl)cc1`, for which the activity change, negative = inhibition is inactive: -0.393%.

On to `COc1c(Cl)cc(Cl)cc1/C=C/C(=O)c1ccc(NC(=O)c2cccs2)cc1`, for which the activity change, negative = inhibition was inactive: -1.14%.

Consider `Cc1nc(-c2ccc(C(=O)N3CCCC3)cc2)cs1`, for which the activity change, negative = inhibition was inactive: 0.0771%.

Consider `O=C(CCSCc1ccccc1F)NCCc1ccccc1`, for which the activity change, negative = inhibition was inactive: 0.826%.

In the case of `Fc1cccc(/C=N/Nc2nc3ccccc3[nH]2)c1`, the activity change, negative = inhibition was inactive: -0.215%.

Turning to `CCOC(=O)Cn1nc(C)c2c1CCCC2=O`, the activity change, negative = inhibition was inactive: -0.467%.

Regarding `O=C(COc1ccc(Cl)cc1)NCCCn1ccnc1`, the activity change, negative = inhibition is inactive: 0.538%.

In the case of `O=C(Nc1nc2c(s1)C(=O)CCC2)c1ccccc1`, the activity change, negative = inhibition is inactive: 0.163%.

Turning to `CCC(NS(=O)(=O)c1cccs1)c1ccc(C)cc1` (stereo not given), the activity change, negative = inhibition was inactive: 0.629%.

With `Cc1cccc(C)c1N1C(=O)c2cccc([N+](=O)[O-])c2C1=O`, the activity change, negative = inhibition was inactive: -0.27%.

Take `C[C@@]12C(=O)Nc3ccc(Cl)cc3C(=O)N1[C@H]1c3cc(Br)ccc3OC[C@@H]1[C@@H]2c1ccccc1`: the activity change, negative = inhibition is inactive: -0.886%.

Regarding `CN(c1ccc(OCC(=O)N2CCCCC2)cc1)S(=O)(=O)c1cccs1`, the activity change, negative = inhibition is inactive: -0.149%.

Turning to `O=C(C/C=N/OCc1ccc(Cl)cc1Cl)c1ccccc1`, the activity change, negative = inhibition is inactive: 0.293%.

With `N#Cc1c(N2CCCCC2)nc(N)c2c(N)nc(SCC(=O)O)cc12`, the activity change, negative = inhibition is inactive: 0.727%.

Regarding `Cc1ccc(NC(=O)COC(=O)CCc2c[nH]c(=O)[nH]2)cc1`, the activity change, negative = inhibition was inactive: 0.364%.

For `O=c1c2ccccc2nc2c3ccccc3c(NCc3ccco3)nn12`, the activity change, negative = inhibition was inactive: 0.625%.

As for `CN(C(=O)c1ccc(Cl)c([N+](=O)[O-])c1)C1(C)CCS(=O)(=O)C1` (stereo not given), the activity change, negative = inhibition was inactive: -0.387%.

`Cc1cc(N2CCN(c3ccccc3)CC2)nc(-c2ccccc2)n1`: the activity change, negative = inhibition was inactive: 0.329%.

On to `Cc1ccc2c(c1)N(CC(=O)NCC1CCCO1)C(=O)C(C(C)C)O2` (stereo not given), for which the activity change, negative = inhibition is inactive: 0.242%.

Turning to `CCC(C)NC(=S)N1CCN(C)CC1` (stereo not given), the activity change, negative = inhibition was inactive: -0.0122%.

As for `COc1ccc(OC)c(Nc2nnc(C)c(=O)[nH]2)c1`, the activity change, negative = inhibition was inactive: -0.0817%.

With `CCCc1cc(=O)[nH]c(SCC(=O)Nc2cc(S(=O)(=O)N(CC)c3ccccc3)ccc2Cl)n1`, the activity change, negative = inhibition was inactive: 0.138%.

Regarding `COc1ccc(-c2ccc3oc(-c4ccsc4)cc(=O)c3c2)cn1`, the activity change, negative = inhibition was inactive: 0.0488%.

Consider `COc1cccc(NC(=O)COC(=O)c2ccc(S(=O)(=O)NCc3ccco3)cc2)c1`, for which the activity change, negative = inhibition is inactive: 0.629%.

Turning to `NC(=S)Nc1ccc(Cl)cc1Cl`, the activity change, negative = inhibition is inactive: 0.172%.

`Cc1ccc(NC(=O)C2C3CCCC2C3c2ccccc2)cc1C` (stereo not given): the activity change, negative = inhibition is inactive: 0.0447%.

As for `Cn1nnc(NC(=O)CSc2ccc(Cl)cc2)n1`, the activity change, negative = inhibition is inactive: 0.42%.

As to `COC(=O)[C@@H](N)Cc1ccc(O)c(O)c1`, the activity change, negative = inhibition was inactive: 0.773%.

With `COc1ccc(-n2cc(C(=O)O)c3ccccc3c2=O)cc1`, the activity change, negative = inhibition was inactive: 0.371%.

Regarding `Cc1occc1-c1nnc(SCC(=O)c2c[nH]c3ccccc23)n1C`, the activity change, negative = inhibition is inactive: -0.0822%.

In the case of `COc1cccc2c1nc(C)c1cc(C)oc12`, the activity change, negative = inhibition is inactive: -0.255%.

Regarding `Oc1ccc(C2Nc3cccc4cccc(c34)N2)cc1`, the activity change, negative = inhibition is inactive: 0.811%.

For `O=C(O)c1cc2cc(Cl)ccc2oc1=O`, the activity change, negative = inhibition is inactive: 0.621%.

For `C[C@H](CO)N1C[C@H](C)[C@@H](CN(C)Cc2ccc3c(c2)OCO3)Oc2c(NC(=O)C3CCCCC3)cccc2C1=O`, the activity change, negative = inhibition is inactive: -0.26%.

For the molecule `CCn1c(SCC(=O)Nc2nc(C)cs2)nnc1-c1ccncc1`, the activity change, negative = inhibition was inactive: -0.0423%.

For the molecule `Cc1cccc(NC(=O)/C(=C\c2ccc([N+](=O)[O-])o2)NC(=O)c2ccc(Cl)cc2)c1`, the activity change, negative = inhibition is inactive: -0.108%.

Take `CCC(=O)N1c2ccc(S(=O)(=O)CCC(=O)NCCC3=CCCCC3)cc2CC1C` (stereo not given): the activity change, negative = inhibition is inactive: -0.483%.

Turning to `COc1ccccc1N1CCN(C(=O)CSc2nc(C)cc(=O)[nH]2)CC1`, the activity change, negative = inhibition was inactive: 0.631%.

Regarding `O=C(Nc1cc(S(=O)(=O)N2CCOCC2)ccc1N1CCCC1)c1ccc(F)cc1`, the activity change, negative = inhibition is inactive: -0.0837%.

For the molecule `Cc1cc2cc3c(cc2nc1SCC(=O)N1CCOCC1)OCO3`, the activity change, negative = inhibition is inactive: 0.249%.

Consider `C[C@H]1CN([C@@H](C)CO)C(=O)c2cccc(NS(=O)(=O)c3ccc(F)cc3)c2O[C@H]1CN(C)S(=O)(=O)c1cn(C)cn1`, for which the activity change, negative = inhibition was inactive: -0.218%.

As to `C[C@@H]1O[C@@H](OC[C@H]2O[C@@H](Oc3cc(O)c4c(=O)cc(-c5ccc(O)c(O)c5)oc4c3)[C@H](O)[C@@H](O)[C@@H]2O)[C@H](O)[C@H](O)[C@H]1O`, the activity change, negative = inhibition is inactive: -1.04%.

Consider `Cc1ccc(C2CC(c3cccc(Br)c3)Nc3nnnn32)cc1` (stereo not given), for which the activity change, negative = inhibition is inactive: -0.821%.

In the case of `COC(=O)[C@]1(C)N[C@H](CN(C)C(=O)NC(C)C)[C@@H]2C(=O)N(Cc3ccccc3)C(=O)[C@@H]21`, the activity change, negative = inhibition was inactive: 0.2%.

Turning to `C#CCOCCOCCOCCNc1nc(N2CCN(C(=O)[C@H](CCCN=C(N)N)n3cc(C(N)[C@@H](C)CC)nn3)CC2)nc(N2CCN(C(=O)[C@H](CCC(=O)O)n3cc([C@@H](N)[C@H](C)CC)nn3)CC2)n1` (stereo not given in full), the activity change, negative = inhibition was inactive: 0.208%.

For the molecule `O=C1CC(=O)N(Cc2ccco2)C(=O)N1`, the activity change, negative = inhibition was inactive: -0.805%.

Turning to `CCOC(=O)CCCCCC(=O)Nc1ccc2c(c1)CC(=O)N([C@@H](C)CO)C[C@H](C)[C@@H](CN(C)C(=O)Nc1ccc3c(c1)OCO3)O2`, the activity change, negative = inhibition was inactive: -0.431%.

As to `COc1cc2c(cc1OC)C(COc1ccc(F)cc1)NCC2` (stereo not given), the activity change, negative = inhibition is inactive: -0.498%.

As for `C/C(=N\NC(=S)NCc1ccccc1)c1ccco1`, the activity change, negative = inhibition was inactive: 0.176%.

`Cc1ccc(NC(=O)CSc2nc3c(c(=O)[nH]2)CN(Cc2ccc(F)cc2)CC3)cc1C`: the activity change, negative = inhibition was inactive: -0.095%.

Turning to `Cn1c(SCC(=O)N2CCCC2=O)nnc1-c1ccccc1F`, the activity change, negative = inhibition was inactive: 0.346%.

As to `CCN(CC)C(=O)[C@H]1CC(CC(=O)NC/C=C(\C)CCC=C(C)C)C(=O)N2CCc3c([nH]c4ccccc34)[C@]12C` (stereo not given in full), the activity change, negative = inhibition is inactive: -0.245%.

In the case of `COc1ccc(-c2csc(NNC3=NCCCCC3)n2)cc1`, the activity change, negative = inhibition is inactive: 0.716%.

For the molecule `N#CC1=C(C2CC2)CC(c2ccccc2)C(C#N)=C1N` (stereo not given), the activity change, negative = inhibition is inactive: 1.08%.

Turning to `Cc1cc(N(CN2CCCC2=O)C(=O)c2ccc(F)cc2)no1`, the activity change, negative = inhibition was inactive: -0.182%.

In the case of `CC[C@@H]1C=C(C(=O)O)[C@H](c2ccc(C)cc2)N1S(=O)(=O)c1ccc(C)cc1`, the activity change, negative = inhibition was inactive: -0.188%.

As for `Cc1ccc(OCCSc2nnc(-c3cccs3)n2C)cc1`, the activity change, negative = inhibition is inactive: -0.407%.

Turning to `Oc1ccc(Br)cc1/C=N/Nc1nc(N2CCCCC2)nc(N2CCOCC2)n1`, the activity change, negative = inhibition was inactive: 0.26%.

Turning to `Cc1ccc(S(=O)(=O)NCCC(=O)Oc2ccc3ccc(=O)oc3c2)cc1`, the activity change, negative = inhibition is inactive: -0.119%.

As for `C=CCn1c(O)c(N=Nc2ccccc2C)c2ccccc21`, the activity change, negative = inhibition is inactive: -0.553%.

As for `CC(C)(C)n1ncc2c(=O)n(Cc3ccccc3Br)cnc21`, the activity change, negative = inhibition is inactive: -0.00762%.
